This note sets out measurements from article PMC7819943, “Rice protein-binding microarrays: a tool to detect cis-acting elements near promoter regions in rice”.

Some of the results follow.

This experiment deals with T1, OsSMF1 (Oryza sativa, UniProt Q6ZLB0 1-436).
T1 sequence: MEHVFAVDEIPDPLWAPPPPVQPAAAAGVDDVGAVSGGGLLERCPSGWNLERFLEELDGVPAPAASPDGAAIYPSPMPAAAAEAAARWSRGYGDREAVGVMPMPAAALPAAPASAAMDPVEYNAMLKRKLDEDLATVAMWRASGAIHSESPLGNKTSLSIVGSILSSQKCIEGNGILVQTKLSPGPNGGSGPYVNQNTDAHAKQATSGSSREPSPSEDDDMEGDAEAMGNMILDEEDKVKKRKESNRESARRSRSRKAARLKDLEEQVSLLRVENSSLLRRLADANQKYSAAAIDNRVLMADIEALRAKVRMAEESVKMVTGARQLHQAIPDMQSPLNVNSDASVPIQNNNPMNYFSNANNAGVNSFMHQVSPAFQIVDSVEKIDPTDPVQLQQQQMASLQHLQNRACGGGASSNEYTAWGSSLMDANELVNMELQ
Description: protein-binding microarray (RPBM); PBS, 2% BSA, 51.3 ng/ul salmon testes DNA, 50 uM zinc acetate, 200 nM TF, 25 C, 1 h; high values mean tight binding. The following applies: protein: recombinant; tags: N-terminal polyhistidine and DsRed monomer fusion (pET32a); chain copies: 2; label: CyDye5-dUTP incorporated in the synthesized complementary strand; 3' TTTTT single-stranded linker to array surface; dsDNA, one strand shown. The method, boiled down:
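An Axon 4000B scanner gave the binding signal as per-feature fluorescence intensity in arbitrary units. This followed washing of a custom Agilent array that had been incubated for 1 h at 25 °C with 200 nM protein in PBS, 2% BSA, salmon testes DNA and 50 µM zinc acetate. The proteins were transcription factors fused at the N-terminus to polyhistidine and DsRed, expressed in E. coli BL21-CodonPlus and purified on Ni–NTA.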
Take “AGAAAACAAGAGAGGAGCAAACACGTACTCTGAATGAACGCGGAGTCACCTAGTGCAG”: the binding signal is 4420 fluorescence intensity (a.u.). Then “AGAATGTTATACGGCGCTCGATCTATTATTCCGCACTCTACGGAGTCACCTAGTGCAG”, with 27100 fluorescence intensity (a.u.); and “CAATCCTCCTCCCTCGCCGCTCGCCGTGCTCCCGCTCCCGCGGAGTCACCTAGTGCAG”, with 3220 fluorescence intensity (a.u.); and “AGACAACACATGAAACCGGTTCCATTCCTTCCAATTCATCCGGAGTCACCTAGTGCAG”, with 3180 fluorescence intensity (a.u.).

Turning to “GGTTGAAGTTAATACGTGCCAAATCTATAACTTTATTCCGCGGAGTCACCTAGTGCAG”, the binding signal is 3300 fluorescence intensity (a.u.). Then “TCTCAGCCGTCGCCCCTCACACACGCACACACACTCTCTCCGGAGTCACCTAGTGCAG”, with 3500 fluorescence intensity (a.u.); and “GAAACCCGGCCACATCACTCCTTCCCTATGCTCCAGTGAGCGGAGTCACCTAGTGCAG”, with 8040 fluorescence intensity (a.u.). As for “GTACTGTCACTTTGTCTTCCCCTACGCCACTTCCCACTGACGGAGTCACCTAGTGCAG”, the figure is 3280 fluorescence intensity (a.u.); as for “CACCCCACGTCAGCAAATACGGAGGCGCGGGGTTGACGGCCGGAGTCACCTAGTGCAG”, 17500 fluorescence intensity (a.u.). As for “ACTGTGGTGATGGTGTCTTTTGTTTGTCTTCTGAATTCAGCGGAGTCACCTAGTGCAG”, the figure is 3760 fluorescence intensity (a.u.); as for “ATGTGATGACATGATGACACGATCTGAACCTACGATTTCCCGGAGTCACCTAGTGCAG”, 6360 fluorescence intensity (a.u.); as for “GCCCAGGAAATAATGGATTTATGGCCCTGCAAGCAATTCACGGAGTCACCTAGTGCAG”, 3160 fluorescence intensity (a.u.).

Turning to “CCCGTGGACCCCACCTGTCATCCCCAACCTCCGGCCAGCTCGGAGTCACCTAGTGCAG”, the binding signal was 3940 fluorescence intensity (a.u.). Then “TGTTAATCTGCTGTGATGACTTGTCATCTTCCACTCTGTCCGGAGTCACCTAGTGCAG”, with 11400 fluorescence intensity (a.u.); and “ATAAACGTGCATCCCAGCCTCTCTGTTATTATGGCTATTTCGGAGTCACCTAGTGCAG”, with 3620 fluorescence intensity (a.u.). As for “GGTTGCTGCTGCTGCTGCTGCGGCGCTGGGGTTAGGGTTTCGGAGTCACCTAGTGCAG”, the figure is 3680 fluorescence intensity (a.u.); as for “CTGCTGCTGGTGCTTAATTTTGCTCGGGTTCGTGGGGTTGCGGAGTCACCTAGTGCAG”, 3560 fluorescence intensity (a.u.). In the case of “TGTGGAGTCCACGTGGGACTTAGCCGCCACATCAATAAAACGGAGTCACCTAGTGCAG”, the binding signal was 9160 fluorescence intensity (a.u.). As for “CGTTTGCCAAGCCATATTGGAGTTCGTTTGTGGTGCTTCCCGGAGTCACCTAGTGCAG”, the figure is 3800 fluorescence intensity (a.u.). Consider “CAGGAATTGAACTATTAAGATCCATTATGTTGCTCTAAAACGGAGTCACCTAGTGCAG”, for which the binding signal was 3310 fluorescence intensity (a.u.). In the case of “AGCAAGGTGGTACTAAACTCCACATGCATGCCATTCCATGCGGAGTCACCTAGTGCAG”, the binding signal is 3890 fluorescence intensity (a.u.).

Consider “GGGTTGTTGTAGAATCTTGTGGATCCACTTGGCAGGGTCTCGGAGTCACCTAGTGCAG”, for which the binding signal was 4540 fluorescence intensity (a.u.). As for “GAATTGCCACGTAGGCGCCACGTCATATGAAGACCGAGTCCGGAGTCACCTAGTGCAG”, the figure is 45500 fluorescence intensity (a.u.). Consider “CACGACCCACCATCATGTCATCCGTGGCTTAATGACACCCCGGAGTCACCTAGTGCAG”, for which the binding signal is 7910 fluorescence intensity (a.u.). As for “AACTCAGATGGGCCGGCCCGTCAACCATCCGCGTGGCCCACGGAGTCACCTAGTGCAG”, the figure is 5040 fluorescence intensity (a.u.). Then “CAGTATTCCTGCTACCATATCAAATCTGACTAACCTGAATCGGAGTCACCTAGTGCAG”, with 26200 fluorescence intensity (a.u.). Then “AACAAGCCACTTGATCAAATTAGGCGCTTGTCACCAAGCACGGAGTCACCTAGTGCAG”, with 3410 fluorescence intensity (a.u.); and “CTTCACCTGGATCATCACCGCCGTCTCCACCTCCGGGAACCGGAGTCACCTAGTGCAG”, with 3170 fluorescence intensity (a.u.); and “TTGATTTCTGTTATGTATGACGTGGCAGATGACTTAGTGTCGGAGTCACCTAGTGCAG”, with 17000 fluorescence intensity (a.u.).

Regarding “TAGTACCAACGCTTCACCGGTGCGTTGGACACCACTTCTCCGGAGTCACCTAGTGCAG”, the binding signal was 3160 fluorescence intensity (a.u.).

As to “TGCTGCTGCTGCCGCTGCTGCTGCTGGTGTGGTGGTAGGTCGGAGTCACCTAGTGCAG”, the binding signal was 3500 fluorescence intensity (a.u.). Turning to “CTCTATTGCAGGGTCTAACTTGTCATCTGAATTCAACATGCGGAGTCACCTAGTGCAG”, the binding signal was 4380 fluorescence intensity (a.u.). Then “GCGGCAACCCTGCGAGCCTGCAGTGACGCCGCCGCCGCCGCGGAGTCACCTAGTGCAG”, with 3700 fluorescence intensity (a.u.); and “AATATTCGGGGCTTTATGCGACAAGCGGAAACACCAACTTCGGAGTCACCTAGTGCAG”, with 5580 fluorescence intensity (a.u.); and “AACCTGCCACGTAACTGCCACATAGGACAAAACCGCCTCCCGGAGTCACCTAGTGCAG”, with 22700 fluorescence intensity (a.u.). Then “AAACATTTGCTAATGACGGAGGTTTACCGACGGATCCTGTCGGAGTCACCTAGTGCAG”, with 3410 fluorescence intensity (a.u.); and “CACTACTCCCATCACGGCACACTGATTCACAGCACACAGTCGGAGTCACCTAGTGCAG”, with 3820 fluorescence intensity (a.u.); and “CCCTGTGCCATGATACGTGTCTATCGATGCTCTGTGTATACGGAGTCACCTAGTGCAG”, with 7130 fluorescence intensity (a.u.). On to “GCAAGAAGACTTTGTCAGAAATCAGAACATGCCTAGGACCCGGAGTCACCTAGTGCAG”, for which the binding signal was 26700 fluorescence intensity (a.u.). Then “CAACATAGGCCGGTGATGACGAGGGAGACAGCACCATCGGCGGAGTCACCTAGTGCAG”, with 3370 fluorescence intensity (a.u.); and “TTGATCTGCGAATTTCGCGGGGCCATCATCCAGTTGGCACCGGAGTCACCTAGTGCAG”, with 3380 fluorescence intensity (a.u.); and “GAGTATGTTACATGCGTCATCCTTTAAAGGGTGTCGAAGGCGGAGTCACCTAGTGCAG”, with 3870 fluorescence intensity (a.u.).
